Measurements reported in publication PMC9242541, “Importance of Rare DPYD Genetic Polymorphisms for 5-Fluorouracil Therapy in the Japanese Population” (Frontiers in Pharmacology, 2022).
No constants are given. Whether binding was seen depends on the method and setting.

Molecular target: DPD variant G926V (human) (UniProt Q12882)
Assay: native gel or EMSA; blue native PAGE (Tris-glycine buffer, 5%-20% polyacrylamide gels), 9 μg of the soluble fraction of transfected 293FT cells per lane, immunoblot with polyclonal anti-human DPD antibody; monomer to dimer

binding: no binding
B1: DPD variant G926V (enzyme, UniProt Q12882 4-1025)
chain: VLSKDSADIESILALNPRTQTHATLCSTSAKKLDKKHWKRNPDKNCFNCEKLENNFDDIKHTTLGERGALREAMRCLKCADAPCQKSCPTNLDIKSFITSIANKNYYGAAKMIFSDNPLGLTCGMVCPTSDLCVGGCNLYATEEGPINIGGLQQFATEVFKAMSIPQIRNPSLPPPEKMSEAYSAKIALFGAGPASISCASFLARLGYSDITIFEKQEYVGGLSTSEIPQFRLPYDVVNFEIELMKDLGVKIICGKSLSVNEMTLSTLKEKGYKAAFIGIGLPEPNKDAIFQGLTQDQGFYTSKDFLPLVAKGSKAGMCACHSPLPSIRGVVIVLGAGDTAFDCATSALRCGARRVFIVFRKGFVNIRAVPEEMELAKEEKCEFLPFLSPRKVIVKGGRIVAMQFVRTEQDETGKWNEDEDQMVHLKADVVISAFGSVLSDPKVKEALSPIKFNRWGLPEVDPETMQTSEAWVFAGGDVVGLANTTVESVNDGKQASWYIHKYVQSQYGASVSAKPELPLFYTPIDLVDISVEMAGLKFINPFGLASATPATSTSMIRRAFEAGWGFALTKTFSLDKDIVTNVSPRIIRGTTSGPMYGPGQSSFLNIELISEKTAAYWCQSVTELKADFPDNIVIASIMCSYNKNDWTELAKKSEDSGADALELNLSCPHGMGERGMGLACGQDPELVRNICRWVRQAVQIPFFAKLTPNVTDIVSIARAAKEGGANGVTATNTVSGLMGLKSDGTPWPAVGIAKRTTYGGVSGTAIRPIALRAVTSIARALPGFPILATGGIDSAESGLQFLHSGASVLQVCSAIQNQDFTVIEDYCTGLKALLYLKSIEELQDWDGQSPATVSHQKGKPVPRIAELMDKKLPSFGPYLEQRKKIIAENKIRLKEQNVAFSPLKRNCFIPKRPIPTIKDVIVKALQYLGTFGELSNVEQVVAMIDEEMCINCGKCYMTCNDSGYQAIQFDPETHLPTITDTCTGCTLCLSVCPIVDCIKMVSRTTPYEPKRGVPLSVNPVC
